# Experimental data published in PubChem BioAssay AID1671190 (National Center for Advancing Translational Sciences (NCATS), 2021).
# Protein sequences, listed by entry. Tags and fused reporters are not part of them. Lines headed by an entry give the natural chain unless they say otherwise; changes in a name come on top.
# UniProt P18054: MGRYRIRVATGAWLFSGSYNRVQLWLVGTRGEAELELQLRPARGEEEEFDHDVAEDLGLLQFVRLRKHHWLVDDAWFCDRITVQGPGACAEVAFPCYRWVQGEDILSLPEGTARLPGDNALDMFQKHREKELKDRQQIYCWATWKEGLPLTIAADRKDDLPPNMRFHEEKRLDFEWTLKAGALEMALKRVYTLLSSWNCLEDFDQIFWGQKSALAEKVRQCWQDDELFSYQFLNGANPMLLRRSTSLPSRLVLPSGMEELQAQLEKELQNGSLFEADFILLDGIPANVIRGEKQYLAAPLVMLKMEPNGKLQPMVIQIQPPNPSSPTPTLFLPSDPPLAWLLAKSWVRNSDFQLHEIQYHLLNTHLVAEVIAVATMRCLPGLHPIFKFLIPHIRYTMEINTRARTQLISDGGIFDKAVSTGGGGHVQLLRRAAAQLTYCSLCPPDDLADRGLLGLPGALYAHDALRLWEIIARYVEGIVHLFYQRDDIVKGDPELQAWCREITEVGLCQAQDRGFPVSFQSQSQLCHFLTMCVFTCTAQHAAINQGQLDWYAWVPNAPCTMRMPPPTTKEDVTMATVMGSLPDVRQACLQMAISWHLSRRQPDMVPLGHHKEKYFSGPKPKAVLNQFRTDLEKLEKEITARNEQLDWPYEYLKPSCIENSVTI
# The whole screen tested about 580,000 compounds, of which about 6,100 (1.1%) were called active. The inconclusive results got no clear call from the source; some entries with a clear call stand among them for comparison. Calls come from the whole dose curve; as a rule, active = well fitted inhibition curve with a large enough effect; inconclusive = small, poorly fitted or top-dose-only effect, or another doubt; inactive = no such curve, though single readings can be large or run the other way. Potencies beside an inconclusive call are fits to weak or partial responses and may not hold up.
# Target: Polyunsaturated fatty acid lipoxygenase ALOX12 (Homo sapiens) (UniProt P18054)
# Assay: Primary qHTS assay for inhibitors of human arachidonate 12S-lipoxygenase (ALOX12): Round 2
# Conditions: purified 12hLO, xylenol orange hydroperoxide absorbance; series mostly up to 108 µM
# Outline: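 Hydroperoxide product was detected by ferrous iron/xylenol orange as the 573 to 405 nm absorbance ratio. Arachidonic acid at 40 uM (final) was turned over for 30 min at room temperature by 150 nM human 12hLO, pH 7.0 Hepes buffer, after 15 min compound preincubation.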
# Potency is the fitted concentration of half-maximal effect.
row,Structure (SMILES),Potency
1,COc1ccccc1/C=C/C(=O)Oc1c(C)ccc(C)c1C,"inconclusive: 0.794 µM [inhibitor, full curve, poor fit]"
2,COc1ccccc1NC(=S)NCc1ccccc1,"inconclusive: 100 µM [inhibitor, single point]"
3,CCSc1nc2n(n1)C(c1cccnc1)C1=C(CC(C)(C)CC1=O)N2 (configuration not stated),inactive
4,CN(C(=O)COC(=O)c1cncc(Br)c1)C1CCCCC1,"inconclusive: 126 µM [inhibitor, partial curve, poor fit]"
5,CCC1(CC)C(=O)C2=C3C1[C@H](C(=O)OC)C=C(C(=O)OC)C[C@H]3[C@H]1C(=O)NC(=O)[C@H]1[C@H]2C (some centres not stated),"inconclusive: 7.94 µM [inhibitor, partial curve, poor fit]"
6,O=C(N[C@H]1CCN2C(=O)c3cc(-c4cccs4)ccc3NC(=O)[C@H]12)c1cccs1,"inconclusive: 31.6 µM [inhibitor, partial curve, poor fit]"
7,CC(=O)Nc1ccc(SCC(=O)NCC2(N3CCCCC3)CCCCC2)cc1,inactive
8,COc1ccccc1OCC(=O)Nc1ccc2c(c1)N(C(=O)c1cccnc1)CCC2,inactive
9,COc1ccc(C(CNC(=O)CCNS(=O)(=O)c2ccc(Br)cc2)N2CCCC2)cc1 (configuration not stated),"inconclusive: 50.1 µM [inhibitor, single point]"
10,CN1C(=O)[C@@H]2C[C@@H](CN2Cc2ccnc3ccccc23)Oc2ccccc21,"inconclusive: 28.2 µM [inhibitor, full curve]"
11,Cn1c(=O)c2c(SCc3c(F)cccc3Cl)nc(CC(C)(C)C)nc2n(C)c1=O,inactive
12,COC(=O)N/N=C/c1cc(C)n(-c2ccc(Br)cc2)c1C,"inconclusive: 44.7 µM [inhibitor, partial curve, poor fit]"
13,CN1C(=O)/C(=C/c2ccccc2OCc2ccc(C(=O)O)cc2)NC1=S,"inconclusive: 31.6 µM [inhibitor, partial curve, poor fit]"
14,CC(NS(=O)(=O)c1ccc(Cl)s1)c1cc2ccccc2o1 (configuration not stated),"inconclusive: 70.8 µM [inhibitor, partial curve, poor fit]"
15,CC(O)c1cc2n(n1)CCCN(C(=O)CCc1cn3ccccc3n1)C2 (configuration not stated),inactive
16,CN(CC(=O)Nc1c(Cl)cccc1Cl)C(=O)Cc1ccc2c(c1)CCC2,"inconclusive: 50.1 µM [inhibitor, partial curve, poor fit]"
17,COc1ccc(SC[C@H](C)CN2CC[C@H](C(C)(C)C)CCC2=O)cc1,"inconclusive: 50.1 µM [inhibitor, partial curve, poor fit]"

# Reprinted from the entries so far (three entries):
row,Structure (SMILES),Potency
12,COC(=O)N/N=C/c1cc(C)n(-c2ccc(Br)cc2)c1C,"inconclusive: 44.7 µM [inhibitor, partial curve, poor fit]"
13,CN1C(=O)/C(=C/c2ccccc2OCc2ccc(C(=O)O)cc2)NC1=S,"inconclusive: 31.6 µM [inhibitor, partial curve, poor fit]"
14,CC(NS(=O)(=O)c1ccc(Cl)s1)c1cc2ccccc2o1 (configuration not stated),"inconclusive: 70.8 µM [inhibitor, partial curve, poor fit]"
